From paper PMC10133297
Results are given in words; binding and its absence hold for the method and conditions named.

Protein sequences, listed by entry. Tags and fused reporters are not part of them. Residues count along the entry.
UniProt P28307, residues 21-151: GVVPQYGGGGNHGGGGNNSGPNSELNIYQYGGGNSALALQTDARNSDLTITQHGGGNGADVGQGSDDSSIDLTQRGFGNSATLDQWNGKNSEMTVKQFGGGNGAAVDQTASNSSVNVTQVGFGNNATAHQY

Biological target: T1, WT-CsgF (curli accessory protein CsgF) (E. coli) (UniProt P0AE98)
T1 sequence (chain, lysine residues sparsely labeled with Alexa-633; labeled,unlabeled 1,50): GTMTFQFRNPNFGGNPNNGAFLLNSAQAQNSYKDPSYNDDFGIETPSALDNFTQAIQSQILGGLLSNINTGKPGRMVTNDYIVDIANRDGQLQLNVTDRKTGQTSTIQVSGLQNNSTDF
Assay: fluorescence microscopy of recruitment into phase-separated droplets; CsgF condensates (20 µM, from 100 µM CsgF in 25 mM potassium phosphate pH 7.5) added to the labelled curli subunit (CsgB 20 µM) at room temperature; labeled:unlabeled 1:50; both purified

binding: no binding
Substance: CsgA (curli major subunit) (from UniProt P28307 21-151)
